Assay results published in paper PMC3989272.

Protein sequences, listed by entry. Tags and fused reporters are not part of them. Lines headed by an entry give the natural chain unless they say otherwise; changes in a name come on top.
UniProt P29476: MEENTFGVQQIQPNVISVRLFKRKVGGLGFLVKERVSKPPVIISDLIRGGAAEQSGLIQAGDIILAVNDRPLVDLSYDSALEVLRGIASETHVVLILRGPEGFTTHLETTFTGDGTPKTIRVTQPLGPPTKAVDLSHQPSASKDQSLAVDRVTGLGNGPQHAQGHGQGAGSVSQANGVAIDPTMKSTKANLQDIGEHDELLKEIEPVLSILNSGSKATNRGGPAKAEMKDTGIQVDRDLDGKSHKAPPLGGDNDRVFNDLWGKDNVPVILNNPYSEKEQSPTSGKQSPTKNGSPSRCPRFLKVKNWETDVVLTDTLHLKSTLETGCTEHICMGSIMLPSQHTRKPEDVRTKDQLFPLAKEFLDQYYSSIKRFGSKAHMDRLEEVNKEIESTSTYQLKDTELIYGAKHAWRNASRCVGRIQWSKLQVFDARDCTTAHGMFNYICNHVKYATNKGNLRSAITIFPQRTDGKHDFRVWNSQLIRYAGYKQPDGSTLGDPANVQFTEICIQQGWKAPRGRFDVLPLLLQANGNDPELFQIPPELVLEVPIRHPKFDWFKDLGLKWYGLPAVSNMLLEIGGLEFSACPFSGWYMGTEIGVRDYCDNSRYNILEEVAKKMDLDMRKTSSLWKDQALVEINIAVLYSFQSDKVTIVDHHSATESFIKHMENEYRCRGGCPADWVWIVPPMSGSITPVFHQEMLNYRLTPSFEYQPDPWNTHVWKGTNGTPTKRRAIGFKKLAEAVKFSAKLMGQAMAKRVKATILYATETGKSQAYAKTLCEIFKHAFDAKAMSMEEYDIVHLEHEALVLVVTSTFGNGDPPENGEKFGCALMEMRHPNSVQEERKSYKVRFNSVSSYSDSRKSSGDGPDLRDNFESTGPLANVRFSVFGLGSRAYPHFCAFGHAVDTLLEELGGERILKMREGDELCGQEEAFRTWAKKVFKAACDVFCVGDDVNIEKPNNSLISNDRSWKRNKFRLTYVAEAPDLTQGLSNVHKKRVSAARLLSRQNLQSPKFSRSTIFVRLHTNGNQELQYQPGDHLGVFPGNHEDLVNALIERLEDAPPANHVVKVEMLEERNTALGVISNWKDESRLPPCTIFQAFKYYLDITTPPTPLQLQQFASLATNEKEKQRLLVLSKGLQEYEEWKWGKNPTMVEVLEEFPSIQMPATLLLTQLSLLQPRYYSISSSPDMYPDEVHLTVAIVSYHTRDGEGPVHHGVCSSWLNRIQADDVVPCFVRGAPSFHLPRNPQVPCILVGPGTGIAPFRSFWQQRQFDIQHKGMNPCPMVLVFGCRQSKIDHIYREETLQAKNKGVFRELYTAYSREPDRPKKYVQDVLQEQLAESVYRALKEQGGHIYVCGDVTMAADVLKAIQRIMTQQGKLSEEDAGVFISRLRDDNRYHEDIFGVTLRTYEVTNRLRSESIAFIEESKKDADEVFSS
UniProt Q62101: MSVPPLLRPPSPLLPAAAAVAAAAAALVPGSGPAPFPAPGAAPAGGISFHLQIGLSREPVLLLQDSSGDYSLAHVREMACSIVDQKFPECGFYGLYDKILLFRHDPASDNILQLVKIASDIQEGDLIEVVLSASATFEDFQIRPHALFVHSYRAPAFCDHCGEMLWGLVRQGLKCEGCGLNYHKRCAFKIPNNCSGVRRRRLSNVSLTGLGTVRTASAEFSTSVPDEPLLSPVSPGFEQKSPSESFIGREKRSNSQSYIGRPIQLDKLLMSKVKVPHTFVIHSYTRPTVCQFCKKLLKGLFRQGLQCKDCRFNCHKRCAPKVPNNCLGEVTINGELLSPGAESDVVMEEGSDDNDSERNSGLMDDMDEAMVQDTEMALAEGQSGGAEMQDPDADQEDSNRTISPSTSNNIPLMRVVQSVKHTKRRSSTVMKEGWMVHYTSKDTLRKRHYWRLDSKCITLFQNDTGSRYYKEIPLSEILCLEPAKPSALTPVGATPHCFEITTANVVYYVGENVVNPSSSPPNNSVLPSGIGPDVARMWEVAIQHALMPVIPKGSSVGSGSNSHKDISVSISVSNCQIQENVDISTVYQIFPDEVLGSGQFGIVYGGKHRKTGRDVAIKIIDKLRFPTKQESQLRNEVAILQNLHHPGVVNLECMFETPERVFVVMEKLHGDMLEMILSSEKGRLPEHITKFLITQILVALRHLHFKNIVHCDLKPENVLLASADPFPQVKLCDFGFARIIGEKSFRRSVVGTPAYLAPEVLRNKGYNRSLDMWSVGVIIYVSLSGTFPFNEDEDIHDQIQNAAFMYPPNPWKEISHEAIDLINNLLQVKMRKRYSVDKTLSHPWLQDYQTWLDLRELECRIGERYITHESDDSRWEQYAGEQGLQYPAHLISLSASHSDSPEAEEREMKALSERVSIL

Target: Myc-tagged wild-type rat nNOS (rat) (UniProt P29476)
Assay: co-IP; HEK293T cells cotransfected with Myc-nNOS and GFP-PKD1 forms, untreated or treated with 200 nM PDBu for 15 min; RIPA lysates, immunoprecipitation with anti-Myc antibody 4 h at 4°C, immunoblot with anti-GFP and anti-Myc

binding | Substance
binds | GFP-PKD1 deletion mutant lacking the CRD domain (from UniProt Q62101) (enzyme)
no binding | GFP-PKD1 deletion mutant lacking the PH-domain (from UniProt Q62101) (enzyme)

Results are given in words; binding and its absence hold for the method and conditions named. In cells and extracts the contact can be indirect. Binding can be weak; no strength is given.
